# According to PubChem BioAssay AID504594 (Broad Institute, 2011):
# The whole screen tested about 2,000 compounds, of which fewer than 10 were called active. The shares of active, inactive and inconclusive entries below differ from those in the screen.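 How the source made its calls: active means growth inhibition of at least 75% in every replicate, which also brings the mean inhibition to 75% or more; inconclusive means mean inhibition 75% or more but some replicate under 75%; inactive means the rest.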
# Assay: growth inhibition of PfHsp90-dependent yeast, primary screen, antimalarial PfHsp90 inhibitor project, S. cerevisiae, BacTiter-Glo luminescence (AID 504594);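 further: 0% = DMSO neutral control wells and 100% = 20 µM radicicol control wells; higher value means stronger growth inhibition because the sign is flipped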
# Conditions: S. cerevisiae expressing PfHsp90, BacTiter-Glo growth, 48 h; at 9.4 µM; active compounds read high
row,SMILES,growth inhibition
1,Clc1ccc(COC(Cn2ccnc2)c2ccc(Cl)cc2Cl)c(Cl)c1 (configuration not stated),inconclusive: 82.5%
2,Clc1ccc(COC(Cn2ccnc2)c2ccc(Cl)cc2Cl)cc1 (configuration not stated),inconclusive: 80.1%
